The values below come from PMC5345265.

Results are given in words; binding and its absence hold for the method and conditions named. In cells and extracts the contact can be indirect. Some results given as binding are weak or reduced against the parent protein; the word gives no strength. Sequences can lack the tags named with a protein.

In one assay the target is T1, Flag-tagged TSPAN6 (UniProt O43657).
T1 sequence: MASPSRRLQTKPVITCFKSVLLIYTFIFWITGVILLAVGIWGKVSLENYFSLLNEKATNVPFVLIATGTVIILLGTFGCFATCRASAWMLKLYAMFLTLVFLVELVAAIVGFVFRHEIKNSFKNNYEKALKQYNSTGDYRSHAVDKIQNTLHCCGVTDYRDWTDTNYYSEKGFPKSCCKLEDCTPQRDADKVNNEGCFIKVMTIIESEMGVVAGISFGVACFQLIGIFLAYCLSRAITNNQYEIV
Kind of assay: co-IP; HEK293 cells co-transfected with Flag-TSPAN6 and HA-tagged syntenin constructs; Flag-TSPAN6 immunoprecipitated with anti-Flag antibody, western blot with anti-HA antibody.

Another assay deals with Flag-tagged syntenin (UniProt O00560). Kind of assay: co-IP; HEK293 cells co-expressing Flag-tagged syntenin and myc-tagged TSPAN6 wt or mutants; Flag-tagged syntenin immunoprecipitated, western blot with anti-myc antibody. (In general: In western blotting, separated proteins are transferred to a membrane and probed.)

For the molecule “HA-tagged wt syntenin (from UniProt O00560 1-298)”, the binding entry with Flag-tagged TSPAN6 is given as “binds”.

Consider “HA-tagged syntenin lacking the last 17 C-terminal amino acids (from UniProt O00560 1-281) (domain or fragment)”, for which, in the assay with Flag-tagged TSPAN6, the binding result is recorded as “no binding”.

B1: myc-tagged TSPAN6 wild type (tetraspanin-6) (protein, UniProt O43657 1-245)
chain: MASPSRRLQTKPVITCFKSVLLIYTFIFWITGVILLAVGIWGKVSLENYFSLLNEKATNVPFVLIATGTVIILLGTFGCFATCRASAWMLKLYAMFLTLVFLVELVAAIVGFVFRHEIKNSFKNNYEKALKQYNSTGDYRSHAVDKIQNTLHCCGVTDYRDWTDTNYYSEKGFPKSCCKLEDCTPQRDADKVNNEGCFIKVMTIIESEMGVVAGISFGVACFQLIGIFLAYCLSRAITNNQYEIV
Turning to B1, the binding entry with Flag-tagged syntenin was “binds”.

B2: HA-tagged syntenin lacking the first 101 N-terminal amino acids (domain or fragment, UniProt O00560 102-298)
chain: GIRRAEIKQGIREVILCKDQDGKIGLRLKSIDNGIFVQLVQANSPASLVGLRFGDQVLQINGENCAGWSSDKAHKVLKQAFGEKITMTIRDRPFERTITMHKDSTGHVGFIFKNGKITSIVKDSSAARNGLLTEHNICEINGQNVIGLKDSQIADILSTSGTVVTITIMPAFIFEHIIKRMAPSIMKSLMDHTIPEV
As to B2, the binding result with Flag-tagged TSPAN6 was “binds”.
